Earlier results in publication PMC3743553 (Journal of child neurology, 2012).

Tested on: class I histone deacetylase enzymes
Conditions: 106: histone deacetylase enzymes 1 and 3; cited from earlier work

For `O=C(CCCCCCC(=O)Nc1ccccc1)NO` [suberoylanilide hydroxamic acid], the mechanism of inhibition is listed as “rapid-on/rapid-off, classical competitive inhibitors”.
